The text below walks through data of paper doi:10.1101/2025.06.13.659446.

Protein sequences, listed by entry. Tags and fused reporters are not part of them.
UniProt O15169: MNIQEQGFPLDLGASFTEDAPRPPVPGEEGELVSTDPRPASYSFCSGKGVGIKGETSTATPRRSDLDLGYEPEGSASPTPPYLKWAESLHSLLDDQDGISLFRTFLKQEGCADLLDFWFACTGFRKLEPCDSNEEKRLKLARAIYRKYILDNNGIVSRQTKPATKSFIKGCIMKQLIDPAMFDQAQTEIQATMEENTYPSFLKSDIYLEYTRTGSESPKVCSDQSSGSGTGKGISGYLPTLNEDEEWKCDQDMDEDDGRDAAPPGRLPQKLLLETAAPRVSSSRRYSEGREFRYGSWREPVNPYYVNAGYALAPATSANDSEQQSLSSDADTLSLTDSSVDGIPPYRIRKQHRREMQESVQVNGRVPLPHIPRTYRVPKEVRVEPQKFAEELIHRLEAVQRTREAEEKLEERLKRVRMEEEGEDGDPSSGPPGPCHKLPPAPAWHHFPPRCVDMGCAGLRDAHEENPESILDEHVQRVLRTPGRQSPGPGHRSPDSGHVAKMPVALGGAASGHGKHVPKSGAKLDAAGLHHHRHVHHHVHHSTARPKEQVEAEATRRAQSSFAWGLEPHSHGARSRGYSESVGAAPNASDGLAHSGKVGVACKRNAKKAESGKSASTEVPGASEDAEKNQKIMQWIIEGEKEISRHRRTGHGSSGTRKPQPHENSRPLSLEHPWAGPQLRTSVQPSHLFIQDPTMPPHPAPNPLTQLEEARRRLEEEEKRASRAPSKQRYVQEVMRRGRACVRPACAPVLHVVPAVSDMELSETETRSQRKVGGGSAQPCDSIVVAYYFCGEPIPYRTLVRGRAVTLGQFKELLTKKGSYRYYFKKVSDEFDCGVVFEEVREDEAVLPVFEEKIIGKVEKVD
UniProt P35222: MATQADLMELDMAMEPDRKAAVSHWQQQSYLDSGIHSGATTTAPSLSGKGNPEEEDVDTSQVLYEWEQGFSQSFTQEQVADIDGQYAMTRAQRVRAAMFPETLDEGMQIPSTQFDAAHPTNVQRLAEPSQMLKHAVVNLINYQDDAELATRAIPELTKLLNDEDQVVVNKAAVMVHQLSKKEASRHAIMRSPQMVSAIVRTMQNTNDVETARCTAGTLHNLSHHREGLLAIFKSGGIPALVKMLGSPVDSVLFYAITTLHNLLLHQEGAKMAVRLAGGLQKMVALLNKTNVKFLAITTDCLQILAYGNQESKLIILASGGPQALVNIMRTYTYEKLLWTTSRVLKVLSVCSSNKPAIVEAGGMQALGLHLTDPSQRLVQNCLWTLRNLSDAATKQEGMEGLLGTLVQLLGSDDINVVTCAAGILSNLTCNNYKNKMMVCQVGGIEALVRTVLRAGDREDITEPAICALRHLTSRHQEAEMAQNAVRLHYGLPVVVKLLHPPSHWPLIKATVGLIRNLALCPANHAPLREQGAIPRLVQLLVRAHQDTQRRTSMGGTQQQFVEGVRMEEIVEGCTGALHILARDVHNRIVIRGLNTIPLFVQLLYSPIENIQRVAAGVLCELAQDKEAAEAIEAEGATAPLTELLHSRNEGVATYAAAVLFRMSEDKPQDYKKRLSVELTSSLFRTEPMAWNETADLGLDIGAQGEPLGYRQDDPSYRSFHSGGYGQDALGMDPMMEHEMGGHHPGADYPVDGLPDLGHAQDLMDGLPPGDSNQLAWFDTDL

No constants are given. Whether binding was seen depends on the method and setting. In cells and extracts the contact can be indirect. Some entries that bind do so weakly or less than the wild type.

The assay deals with AXIN1 (human (endogenous in HCT116)) (UniProt O15169). Briefly: co-IP.

With “beta-catenin (from UniProt P35222 1-781)”, the binding result is “binds”.
